These are yes or no findings as the source states them, for the method shown. Some binding calls cover weakened binding; strength is not graded here. Values belong to the binder of their own block, whether it stands above or below them.
Experiments:
[1] = target: T1, human interleukin-38 (IL-38) (human) (UniProt Q8WWZ1); assay: BLI (Octet QKe)
T1 sequence (looked up): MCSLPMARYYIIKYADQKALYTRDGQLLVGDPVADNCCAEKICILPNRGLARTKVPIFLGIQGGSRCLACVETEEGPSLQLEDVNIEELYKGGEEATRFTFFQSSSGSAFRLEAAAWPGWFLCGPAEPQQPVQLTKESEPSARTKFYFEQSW

mouse IL-38 (mouse) = target: T2, mouse IL-38 (mouse) (UniProt Q8R459); assay: BLI (Octet QKe)
T2 sequence (looked up): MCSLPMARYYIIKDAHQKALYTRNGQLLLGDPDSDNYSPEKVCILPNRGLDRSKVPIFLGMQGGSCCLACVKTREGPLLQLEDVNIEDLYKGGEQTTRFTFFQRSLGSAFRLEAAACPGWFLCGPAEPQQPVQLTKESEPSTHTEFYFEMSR

[2] = target: T1, human interleukin-38 (IL-38) (human); assay: summary of in vitro assays
[3] = target: T1, human interleukin-38 (IL-38) (human); assay: CDI HuProt native protein microarray

binding [1]: binds
binding (mouse IL-38 (mouse)): binds
binding [2]: binds
binding [3]: binds
B1: CD1-M3 (antibody, V domains shown)
VH: EVQLQQSGPELVKPGASVKIPCKASGYTFTDYNMDWVKQSHGKSLEWIGDINPNNGGTIYNQKFKGKATLTVDKSSSTAYMELRSLTSEDTAVYYCSRPYYGYFAYWGQGTLVTVSA
VL: DVVMTQSPLSLPVSLGDQASISCRSSQSLVHSHENTFLHWYLQKPGQSPKLLIYRVSNRFSGVPDRFSGSGSGTDFTLKISRVEAEDLGVYFCSQSTHVPLTFGAGTKLELK

binding [2]: binds
binding [3]: binds
B2: CD1-M8 (antibody, V domains shown)
VH: EVQLQQSGPELVKPGASVKMSCKASGYTFTDYYIHWVKQSHGKGLEWIGYIFPNNGGNGYSQKFKGKATMTVDKSSSTAYMELRSLTSEDSAVYYCARGGYDAGFVYWGQGTLVTVSA
VL: DIVMSQSPSSLAVSAGEKVTMSCKSSQSLFNSGARKNFLAWYQQKPGQSPKLLIYWASTRESGVPDRFTGSGSGTDFTLTISSVQAEDLAVYYCKQSYYLITFGAGTKLELK

binding [3]: binds
B3: NZB-M8 (antibody, V domains shown)
VH: EVQLQQSGPELVKPGASVKISCKASGYSFTGYYMHWVKQSPEKSLEWIGVINPNTGGITYNQKFKAKATLNVDKSSSTAYMQLKSLTSEDSAVYYCARSMGVWGQGTLVTVSA
VL: DIVMTQAAPSVSVTPGESVSISCRSSKSLLHSNGNTYLYWFLQRPGQSPQLLIYRMSNLASGVPDRFSGSGSGTAFTLRISRVEAEDVGVYYCMQYLEYPFTFGSGTKLEIK

Source: patent US20240174741A1
